PubChem BioAssay AID2685 (National Center for Advancing Translational Sciences (NCATS), 2010)
Some of the results follow. These are further read-outs of the screen, such as a control signal, another cell line or another target. No call is given for them. The list favours compounds with an active or inconclusive main result. Potencies come from curve fits of mixed quality, noted in brackets.

Test: qHTS Assay for Lipid Storage Modulators in Drosophila S3 Cells;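 for cell number change: cells counted by Cell Tracker Red CMTPX staining in the red channel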
Settings: BODIPY lipid droplet fluorescence, 18-24 h; for cell number change: measured here: cell count max response, cells fed with added oleic acid
Procedure, shortened: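 Drosophila S3 cells got compounds at several concentrations plus oleic acid (400 uM solution). Laser-scanning cytometry with 488 nm excitation read lipid droplets at 500-530 nm and cells at 575-640 nm. Percent activity was relative to 20 uM Triacsin C.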

[1] = measured here: lipid fluorescence (Fed channel) AC50, cells fed with added oleic acid
[2] = measured here: cell number channel AC50, cells fed with added oleic acid

| SMILES | cell number change | AC50 [1] | AC50 [2] |
| --- | --- | --- | --- |
| CC1CCc2sc(NC(=O)C3CC(Cl)=CCC3C(=O)O)c(C#N)c2C1 (configuration not stated) | -15.8% |  |  |
| CN(C1CCCCC1)C(CNS(=O)(=O)c1ccc(Cl)cc1)c1ccccc1 (configuration not stated) | -1.24% | 5.17 µM [rising, partial curve] |  |
| COc1ccc(N(C(=O)CCl)C(C(=O)NC2CCCCC2)c2cccnc2)cc1 (configuration not stated) | 0.422% | 29.1 µM [falling, single point] |  |
| O=C1CCc2cc(S(=O)(=O)NC(C(=O)NCc3cccnc3)c3ccccc3)ccc2N1 (configuration not stated) | 0.487% | 0.13 µM [falling, full curve, poor fit] |  |
| CCNS(=O)(=O)c1ccc(CCC(=O)Nc2ccc3c(c2)OCCO3)cc1 | -10.3% | 14.6 µM [rising, partial curve, poor fit] |  |
| CCOC(=O)CC(NS(=O)(=O)c1ccc(OC)c(C)c1)c1cccc([N+](=O)[O-])c1 (configuration not stated) | 44.3% |  | 0.82 µM [rising, partial curve] |
| CSCC[C@@H](C(=O)NCc1cccs1)N1Cc2ccccc2C1=O | 3.29% |  |  |
| COc1ccccc1NS(=O)(=O)c1cccc(C(=O)NCC(c2cccs2)N2CCOCC2)c1 (configuration not stated) | 30.4% | 29.1 µM [rising, partial curve] | 16.4 µM [rising, partial curve, poor fit] |
| Cc1noc(C)c1CSc1nc2ccccc2n1C | 0.209% | 0.291 µM [rising, partial curve, poor fit] |  |
| O=S(=O)(Nc1ccccn1)c1ccc(C(F)(F)F)cc1Cl |  | 6.51 µM [falling, single point] | 0.206 µM [falling, partial curve, poor fit] |
| CC(=O)N1CCN(Cc2ccc(Br)s2)CC1 | 6.2% |  |  |
| Cc1noc(/C=C/N(C)C)c1S(=O)(=O)N1CCc2ccccc21 |  | 29.1 µM [rising, single point] |  |
| CSc1ncccc1C(=O)OCC(=O)N(C)C1CCS(=O)(=O)C1 (configuration not stated) | -3.25% | 29.1 µM [falling, single point] |  |
| CCN(CC(=O)Nc1ccc(OC)cc1)C(=O)CSCc1ccc(C)cc1 | -0.963% | 0.082 µM [falling, partial curve, poor fit] |  |
| CCN(CC)CCn1c(=N)n(CCO)c2ccccc21 |  | 2.06 µM [falling, partial curve] |  |
| O=C(COC(=O)CNC(=O)c1ccccc1)NC1CCCC1 | -1.6% | 20.6 µM [rising, single point] |  |
| CC(Sc1nnc(COc2ccc(Cl)cc2)o1)C(=O)Nc1ccc(N2CCOCC2)cc1 (configuration not stated) | -94.3% | 2.91 µM [falling, single point] | 4.61 µM [falling, full curve] |
| COc1ccc(Cn2c(C(C)C)nc3sc4ccccc4c(=O)c3c2=O)cc1 | 10.1% | 1.16 µM [rising, full curve, poor fit] | 0.461 µM [rising, full curve, poor fit] |
| CC(C)(C)C(=O)NNC(=O)C1CC1(c1ccccc1)c1ccccc1 (configuration not stated) | -10.7% | 0.517 µM [falling, full curve] |  |
| CCC(C)(NC(=O)CNC(C)=O)C(=O)NC1CCCCC1 (configuration not stated) | -8.36% | 29.1 µM [falling, single point] | 0.291 µM [falling, full curve, poor fit] |

| SMILES | cell number change | AC50 [1] | AC50 [2] |
| --- | --- | --- | --- |
| CCCOc1ccc(-c2nc3c(c(=O)[nH]c(=O)n3Cc3ccccc3)n2CCO)cc1OCC | 8.4% | 29.1 µM [falling, single point] |  |
| COc1cc(/C=C/C(=O)O)cc(S(=O)(=O)Nc2cccc(SC)c2)c1OC | -16.7% |  | 1.16 µM [rising, full curve] |
| O=c1c(C(c2ccccc2)c2c(O)sc3ccccc3c2=O)c(O)sc2ccccc12 |  |  | 0.103 µM [rising, full curve, poor fit] |
| CCOC(=O)c1cc2sccc2n1CC(=O)N1c2ccccc2CC1C (configuration not stated) | -46.4% | 20.6 µM [falling, single point] | 7.31 µM [falling, partial curve] |
| Cc1cc(=O)oc2cc(OCC(=O)NC3CCCCC3)ccc12 | -3.85% |  |  |
| C/C(=N\NC(=O)c1ccc(Cl)cc1)c1ccccn1 | -43.7% | 3.66 µM [falling, full curve] | 3.26 µM [falling, full curve, poor fit] |
| Cc1ccccc1NC(=O)OCc1cccnc1Sc1ccc(Cl)cc1 | -16.3% | 0.058 µM [falling, full curve, poor fit] |  |
| CCOc1ccc(NC(=O)CN(C)C(=O)CCCOc2ccc(Cl)c(C)c2)cc1OCC | -2.64% | 29.1 µM [falling, single point] |  |
| CCCCSc1nnc(-c2ccccc2NC(C)=O)c(=O)[nH]1 | -20.8% |  |  |
| O=C1C(Cl)=C(NCCN2CCOCC2)C(=O)c2ccccc21 | -46.8% |  | 1.64 µM [falling, partial curve, poor fit] |
| CCOC(=O)N/N=C(\CCC(=O)O)c1cccs1 | 10.7% | 4.11 µM [falling, single point] | 0.103 µM [falling, single point] |
| O=C(CCC1=NS(=O)(=O)c2ccccc2N1)NC1CCCCCCC1 | -21.2% |  |  |
| CSc1nc2cc(S(=O)(=O)N3CCCCC3)ccc2s1 | 2.34% | 1.84 µM [rising, partial curve] | 1.84 µM [rising, partial curve, poor fit] |
| O=C(CN1CCOCC1)Nc1ccc(OCc2ccccc2)cc1 | -14.9% | 0.103 µM [falling, single point] |  |
| Cc1cc(C)c(S(=O)(=O)N2CCc3ccccc32)c(C)c1 | -6.22% | 29.1 µM [falling, single point] |  |
| CC1CN(CCOc2ccccc2C(C)C)CC(C)O1 (configuration not stated) | -6.74% | 3.26 µM [falling, full curve, poor fit] |  |
| CCc1ccc(Cn2nnc(C(=O)Nc3ccc(OC)cc3OC)c2N)cc1 | -8.4% | 0.366 µM [rising, partial curve, poor fit] |  |
| COc1cc(CNc2nc(C)c([N+](=O)[O-])c(C)c2C#N)cc(OC)c1OC | -0.482% | 0.13 µM [rising, full curve, poor fit] |  |
| NNC(=O)CC12CC3CC(C1)CC(n1ncnn1)(C3)C2 | -21% | 0.13 µM [falling, full curve, poor fit] |  |
| Cc1cc(N2C(=O)C(O)=C(C(=O)c3ccco3)C2c2cccnc2)no1 (configuration not stated) | -12.5% | 1.16 µM [falling, full curve] |  |

Random excerpt: 3 records from the list, in no set order.

| SMILES | cell number change | AC50 [1] | AC50 [2] |
| --- | --- | --- | --- |
| O=C(CCC1=NS(=O)(=O)c2ccccc2N1)NC1CCCCCCC1 | -21.2% |  |  |
| CCOC(=O)CC(NS(=O)(=O)c1ccc(OC)c(C)c1)c1cccc([N+](=O)[O-])c1 (configuration not stated) | 44.3% |  | 0.82 µM [rising, partial curve] |
| Cc1cc(=O)oc2cc(OCC(=O)NC3CCCCC3)ccc12 | -3.85% |  |  |

Carrying on:

| SMILES | cell number change | AC50 [1] | AC50 [2] |
| --- | --- | --- | --- |
| C=CCOc1ccc(/C(O)=C2\C(=O)C(=O)N(CCCOC)C2c2ccc(O)c(OC)c2)cc1 (configuration not stated) | 133% | 0.103 µM [rising, partial curve, poor fit] | 29.1 µM [rising, partial curve] |
| Cc1ccc(NC(=O)CCc2nc3sc4c(c3c(=O)[nH]2)CCCC4)c(Br)c1 | 23.5% |  |  |
| COC(=O)C(C)N(C(=O)c1cccc2ccccc12)c1c(C)cccc1C (configuration not stated) | -49.4% | 1.84 µM [falling, partial curve] |  |
| Cc1ccc(S(=O)(=O)NCCC(=O)NCC(c2cccs2)N(C)C)cc1 (configuration not stated) | -2.33% | 0.00461 µM [rising, full curve, poor fit] |  |
| O=C(Nc1c2c(nn1-c1ccccc1)CS(=O)(=O)C2)c1ccccc1C(F)(F)F | -13.6% | 0.00461 µM [falling, full curve, poor fit] |  |
| COc1ccc(NC(=O)COC(=O)CN2C(=O)c3ccccc3C2=O)cc1 | 0.173% | 4.61 µM [falling, single point] |  |
| Cn1nc(C(=O)NCc2ccccc2Cl)c2c1-c1ccccc1S(=O)(=O)C2 | 92.1% | 20.6 µM [rising, single point] | 29.1 µM [rising, single point] |
| Cc1cc2cc(CNC(=O)c3ccc(Br)o3)ccc2n1C | -19% | 18.4 µM [falling, single point] |  |
| COc1ccc(COC(=O)C2CCN(S(=O)(=O)c3cccs3)CC2)cc1 | 64.3% | 29.1 µM [rising, partial curve] | 13 µM [rising, partial curve, poor fit] |
| CCc1nnc(NS(=O)(=O)c2ccc(N/C=C/C(=O)c3ccc(C)cc3)cc2)s1 | -4.25% | 0.731 µM [falling, full curve] |  |
| COc1ccc(CS(=O)(=O)/C(Cl)=C(/Cl)C(=O)Nc2ccc(OC)nc2)cc1 | -76.4% | 11.6 µM [falling, partial curve] | 13 µM [falling, partial curve] |
| Cc1ccc(C(=O)CSc2nc3cccnc3n2C)cc1 | -114% |  | 32.6 µM [falling, partial curve] |
| Cc1nnc(SCC(=O)Nc2nc(-c3ccccc3)cs2)n1N | 15.6% | 0.82 µM [rising, full curve, poor fit] |  |
| COC(=O)c1sc2ccccc2c1NC(=O)c1ccc(S(=O)(=O)N2CCCCC2)cc1 | -6.12% |  |  |
| Cc1cc(C(=O)OCC(=O)N(C)C2CCS(=O)(=O)C2)c(C)n1-c1ccccc1 (configuration not stated) | 3.01% | 1.16 µM [falling, partial curve] |  |
| O=C(CCl)N1CCN(CC(=O)N2CCCC2)CC1 | 7.91% | 9.2 µM [rising, partial curve] |  |
| CNC(=O)c1nc(C)n(-c2cc(Cl)cc(Cl)c2)n1 |  | 0.92 µM [falling, partial curve, poor fit] |  |
| CC(C)(C)c1cc(C(=O)C[n+]2ccc(C(=O)NCCCO)cc2)cc(C(C)(C)C)c1O | -36.6% | 14.6 µM [falling, partial curve] | 0.326 µM [falling, full curve] |
